According to the odorant receptor screen of Mainland et al. (2015):
“And” between values parts separate entries of the source, which are not always exact repeats. Equal entries are not always repeated. The list shows a part of the results. Each value is one well over the wells without odorant, computed here; the data are noisy.

Experiments:
Assay in all cases: odorant receptor activation (CRE luciferase / Renilla) (fold of no-odor wells); higher = more activation
Settings in all cases: 100 µM
OR5T2 clone 1313 = system: OR5T2 clone 1313
OR5T2 clone 1428 = system: OR5T2 clone 1428
OR5T3 clone 1343 = system: OR5T3 clone 1343
OR5V1 clone 1070 = system: OR5V1 clone 1070
OR6A2 clone 1489 = system: OR6A2 clone 1489
OR6B1 R143C clone 1181 = system: OR6B1 R143C clone 1181
OR6B2 R122C clone 1444 = system: OR6B2 R122C clone 1444
OR6B3 R261W clone 1445 = system: OR6B3 R261W clone 1445
[1] = system: OR6C1 V74I/C130Y/L161F/H165D/V246I/R291K clone 1442
OR6C2 clone 1413 = system: OR6C2 clone 1413
OR6C3 clone 1424 = system: OR6C3 clone 1424
OR6C4 I37V clone 1412 = system: OR6C4 I37V clone 1412
OR6C6 clone 1426 = system: OR6C6 clone 1426
OR6C65 clone 1459 = system: OR6C65 clone 1459
OR6C68 A45T clone 1451 = system: OR6C68 A45T clone 1451
OR6C70 clone 1427 = system: OR6C70 clone 1427
OR6C74 clone 1441 = system: OR6C74 clone 1441
OR6C75 clone 1519 = system: OR6C75 clone 1519
OR6C76 clone 1414 = system: OR6C76 clone 1414
OR6F1 clone 1039 = system: OR6F1 clone 1039

SMILES	odorant receptor activation (OR5T2 clone 1313)	odorant receptor activation (OR5T2 clone 1428)	odorant receptor activation (OR5T3 clone 1343)	odorant receptor activation (OR5V1 clone 1070)	odorant receptor activation (OR6A2 clone 1489)	odorant receptor activation (OR6B1 R143C clone 1181)	odorant receptor activation (OR6B2 R122C clone 1444)	odorant receptor activation (OR6B3 R261W clone 1445)	odorant receptor activation [1]	odorant receptor activation (OR6C2 clone 1413)	odorant receptor activation (OR6C3 clone 1424)	odorant receptor activation (OR6C4 I37V clone 1412)	odorant receptor activation (OR6C6 clone 1426)	odorant receptor activation (OR6C65 clone 1459)	odorant receptor activation (OR6C68 A45T clone 1451)	odorant receptor activation (OR6C70 clone 1427)	odorant receptor activation (OR6C74 clone 1441)	odorant receptor activation (OR6C75 clone 1519)	odorant receptor activation (OR6C76 clone 1414)	odorant receptor activation (OR6F1 clone 1039)
CC1CCC(C(C)C)C(O)C1 (single isomer, unassigned; (-)) [(-)-menthol]	0.704	0.877	0.782	2.46	4.77	1.41	1.05	0.758	0.782	0.775	0.512	1.02	0.979	4.96	0.866	1.11	0.898	5.72	0.535	3.27
CC(=O)C(C)=O [diacetyl]	1.01	1.64	1.03	1.19	1.31	1.11	1.05	1.28	1.22	1.23	1.16	1.11	1.44	1.22	0.984	1.41	1.36	1.41	1.06	1.26
CCCCCCCCCC=O [decyl aldehyde]	1.19	1.52	1.01	1.15	1.16	1.34	1.32	1.37	1.33	1.17	1.38	1.26	1.59	1.04	1.11	1.69	1.48	1.19	1.08	1.45
CCCCCCCCC=O [nonyl aldehyde]	0.923	0.958	0.869	1.13	1.16	0.815	0.709	0.942	0.954	0.888	0.91	1.06	1.07	1	1.43	0.984	0.948	0.988	0.727	0.974
CC(C)C=O [isobutyraldehyde]	1.07 and 0.742	0.966	1.39 and 0.898	0.676	0.98 and 1.14	0.779	0.752	0.99	1.04	0.849	0.887	0.781	1.1	1.11 and 0.965	0.855	0.882	0.835	1.22 and 1.13	0.812	1.07
CCCCCCOC(=O)CCC [hexyl butyrate]	0.955 and 0.733	0.765	1.07 and 1.29	1.06	1.07 and 0.987	0.88	0.787	0.945	1	0.867	0.871	0.801	0.926	0.874 and 1.06	1.03	0.823	0.888	1.01	0.716	0.909
CCCCCCCOC(C)=O [heptyl acetate]	1.15 and 0.699	1.02	1.31 and 1.09	0.646	0.967 and 1.42	0.973	0.851	1.1	1.12	0.919	1.09	0.86	0.988	0.773 and 1.31	0.874	0.861	0.896	1.14 and 0.967	0.853	1.12
